Measured values: PubChem BioAssay (EPA / NIEHS)
Values joined by “and” are separate entries in the source; they are usually repeats but may differ in a detail not shown here. Equal entries are not always repeated. The shares of active, inactive and inconclusive entries below differ from those in the screen. Where the call is inconclusive, the potency comes from a doubtful curve fit. Some structures have more than one record in an assay (separate samples or runs), and their calls can disagree. Active and inactive are the calls of the source. Rule for the calls: active = hit-call score of the fitted dose curve at least 0.9, where 1 is the maximum; inconclusive = response in the unintended direction; inactive = score below 0.9.

Amino acid sequences for entries named in this document (tags omitted). A change or cut given only in a name is not applied to a line headed by its entry.
UniProt P19793: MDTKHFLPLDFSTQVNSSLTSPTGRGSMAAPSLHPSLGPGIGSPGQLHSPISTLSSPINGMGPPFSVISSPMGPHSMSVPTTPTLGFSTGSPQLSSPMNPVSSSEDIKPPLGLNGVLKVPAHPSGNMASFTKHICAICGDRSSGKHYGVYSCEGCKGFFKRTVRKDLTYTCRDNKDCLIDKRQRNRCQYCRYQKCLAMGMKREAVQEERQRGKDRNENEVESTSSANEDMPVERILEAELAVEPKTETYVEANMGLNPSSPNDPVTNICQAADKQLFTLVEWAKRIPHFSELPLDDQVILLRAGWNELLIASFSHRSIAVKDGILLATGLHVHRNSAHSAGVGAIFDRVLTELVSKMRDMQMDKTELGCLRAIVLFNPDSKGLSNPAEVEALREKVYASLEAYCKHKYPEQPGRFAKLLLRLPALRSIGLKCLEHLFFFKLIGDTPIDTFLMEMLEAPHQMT

What follows are molecules tested against Retinoic acid receptor RXR-alpha (Homo sapiens) (UniProt P19793) (assay: OT_NURR1_NURR1RXRa_0480: Odyssey Thera (OT) 8-hour HEK293T Protein Complementation Assay for Nurr1/retinoid X receptor (RXR) (AID 2283385)).
In short: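 Compounds are applied to HEK293T cells carrying Nurr1 and RXRα linked to reporter fragments. After 8 h, fluorescence intensity reports heterodimer formation, with DMSO as baseline.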
In the case of `CC(C)OC(=O)c1ccccc1C(=O)OC(C)C`, the AC50 is reported as inconclusive: 2.11 µM. With `COS(C)(=O)=O` the AC50 was inconclusive: 50 µM and the outcome was “inactive”. `CCCCNC(=S)NCCCC` was tested, and the outcome was “inactive”. For `CO[C@@H]1COCC[C@@H]1N[C@@H]1CC[C@@](C(=O)N2CCc3ncc(C(F)(F)F)cc3C2)(C(C)C)C1`, the AC50 was inconclusive: 49.8 µM and the outcome was “inactive”. For `CCCCCCCC1CCC(=O)O1` (stereo not given), the AC50 was inconclusive: 1.41 µM. In the case of `CC(C)CC(C)O` (stereo not given), the AC50 is reported as inconclusive: 7.36 µM and the outcome is reported as “inactive”. For `Cn1cc[nH]c1=S`, the AC50 was inconclusive: 50 µM and the outcome was “inactive”. In the case of `CC(C)(C)c1cc(Cc2cc(C(C)(C)C)c(O)c(C(C)(C)C)c2)cc(C(C)(C)C)c1O`, the AC50 is reported as inconclusive: 50 µM. For `CCCCC(CC)COS(=O)(=O)O` (stereo not given), the AC50 was inconclusive: 50 µM. In the case of `c1ccc2cc3ccccc3cc2c1`, the AC50 is reported as inconclusive: 50 µM and the outcome is reported as “inactive”. In the case of `O=C1OC(c2ccc(O)cc2)(c2ccc(O)cc2)c2ccccc21`, the AC50 is reported as inconclusive: 20.5 µM and the outcome is reported as “inactive”. For `Nc1ccc2cc(S(=O)(=O)O)cc(O)c2c1N=Nc1ccccc1C(F)(F)F`, the AC50 was inconclusive: 24.2 µM. For `O=C(O)CCC(=O)O`, the AC50 was inconclusive: 50 µM. `C1CCC(SSC2CCCCC2)CC1` was tested, and the AC50 was active: 79.5 µM and the outcome was “inactive”. With `CCOC(=O)CCC(=O)OCC` the AC50 was inconclusive: 0.0757 µM and the outcome was “inactive”. With `NC(=O)N1C(=O)C(C(=O)c2cc(Cl)cs2)c2cc(F)c(Cl)cc21` (stereo not given) the AC50 was active: 13.2 µM and the outcome was “inactive”. In the case of `Cc1nc(-c2ccc3c(c2)CCN(CCC2CCC(NC(=O)/C=C/c4ccc(F)cc4)CC2)CC3)no1` (stereo not given), the AC50 is reported as inconclusive: 23.2 µM. In the case of `O=S(=O)(O)c1ccc(N=Nc2c(O)ccc3cc(S(=O)(=O)O)ccc23)cc1`, the outcome is reported as “inactive”. In the case of `CCN(CC)C(=S)SSC(=S)N(CC)CC`, the AC50 is reported as inconclusive: 20.8 µM and inconclusive: 22.1 µM. `O=C(Oc1ccccc1)c1ccccc1` was tested, and the AC50 was active: 75.8 µM. For `CCCCCC(=O)CC`, the outcome was “inactive”. `NNC(=O)c1ccncc1` was tested, and the AC50 was inconclusive: 3.57 µM and the outcome was “inactive”. For `CN1C(=O)c2ccccc2C1=O`, the outcome was “inactive”. `C[C@@H](Oc1ccc(CNC(=O)c2cccnc2Oc2ccc3c(c2)OCO3)c(F)c1)C(=O)O` was tested, and the outcome was “inactive”. With `CCCC1CCC(=O)CC1` the outcome was “inactive”. `Cc1ccc(S(=O)(=O)NC(=O)NN2CCCCCC2)cc1` was tested, and the AC50 was inconclusive: 15.8 µM and the outcome was “inactive”. For `Cn1cnc2c1c(=O)[nH]c(=O)n2C`, the AC50 was inconclusive: 21 µM and the outcome was “inactive”. `Cc1ccc(C)c(S(=O)(=O)O)c1` was tested, and the AC50 was inconclusive: 0.448 µM and the outcome was “inactive”. For `C=C(C)[C@@H]1CC=C(C)C(=O)C1`, the outcome was “inactive”. For `C=CCOC(=O)c1ccc(C(=O)OCC=C)c(C(=O)OCC=C)c1`, the outcome was “inactive”. With `Fc1ccccc1[C@@H](F)COC1CCC(Nc2ncnc3[nH]ncc23)CC1` (stereo not given in full) the AC50 was inconclusive: 11.4 µM and the outcome was “inactive”. With `CCCCC(CC)CO` (stereo not given) the AC50 was inconclusive: 50 µM and the outcome was “inactive”. In the case of `OC[C@H]1O[C@@H]2O[C@H]3[C@H](O)[C@@H](O)[C@@H](O[C@H]4[C@H](O)[C@@H](O)[C@@H](O[C@H]5[C@H](O)[C@@H](O)[C@@H](O[C@H]6[C@H](O)[C@@H](O)[C@@H](O[C@H]7[C@H](O)[C@@H](O)[C@@H](O[C@H]1[C@H](O)[C@H]2O)O[C@@H]7CO)O[C@@H]6CO)O[C@@H]5CO)O[C@@H]4CO)O[C@@H]3CO`, the AC50 is reported as inconclusive: 24.3 µM. `C=C1C[C@]23C[C@@]1(O)CC[C@H]2[C@@]12C=C[C@H](O)[C@@](C)(C(=O)O1)[C@H]2[C@@H]3C(=O)O` was tested, and the AC50 was inconclusive: 50 µM. With `CCCCC(CC)COC(=O)CCCCC(=O)OCC(CC)CCCC` (stereo not given) the AC50 was inconclusive: 10.1 µM and the outcome was “inactive”. For `Cc1cccc(C)c1`, the AC50 was inconclusive: 0.03 µM. With `CCCC=C(C=O)CC` the AC50 was inconclusive: 50 µM. With `CC1=C(/C=C/C(C)=C/C=C/C(C)=C/CO)C(C)(C)CCC1` the AC50 was active: 18.5 µM and the outcome was “inactive”.
